Reference: paper PMC8390644
These are yes or no findings as the source states them, for the method shown. Binding seen in cells or lysates may run through a third protein. Some binding calls cover weakened binding; strength is not graded here.

The chains behind the UniProt entries cited, without tags or fusion partners.
UniProt P51531: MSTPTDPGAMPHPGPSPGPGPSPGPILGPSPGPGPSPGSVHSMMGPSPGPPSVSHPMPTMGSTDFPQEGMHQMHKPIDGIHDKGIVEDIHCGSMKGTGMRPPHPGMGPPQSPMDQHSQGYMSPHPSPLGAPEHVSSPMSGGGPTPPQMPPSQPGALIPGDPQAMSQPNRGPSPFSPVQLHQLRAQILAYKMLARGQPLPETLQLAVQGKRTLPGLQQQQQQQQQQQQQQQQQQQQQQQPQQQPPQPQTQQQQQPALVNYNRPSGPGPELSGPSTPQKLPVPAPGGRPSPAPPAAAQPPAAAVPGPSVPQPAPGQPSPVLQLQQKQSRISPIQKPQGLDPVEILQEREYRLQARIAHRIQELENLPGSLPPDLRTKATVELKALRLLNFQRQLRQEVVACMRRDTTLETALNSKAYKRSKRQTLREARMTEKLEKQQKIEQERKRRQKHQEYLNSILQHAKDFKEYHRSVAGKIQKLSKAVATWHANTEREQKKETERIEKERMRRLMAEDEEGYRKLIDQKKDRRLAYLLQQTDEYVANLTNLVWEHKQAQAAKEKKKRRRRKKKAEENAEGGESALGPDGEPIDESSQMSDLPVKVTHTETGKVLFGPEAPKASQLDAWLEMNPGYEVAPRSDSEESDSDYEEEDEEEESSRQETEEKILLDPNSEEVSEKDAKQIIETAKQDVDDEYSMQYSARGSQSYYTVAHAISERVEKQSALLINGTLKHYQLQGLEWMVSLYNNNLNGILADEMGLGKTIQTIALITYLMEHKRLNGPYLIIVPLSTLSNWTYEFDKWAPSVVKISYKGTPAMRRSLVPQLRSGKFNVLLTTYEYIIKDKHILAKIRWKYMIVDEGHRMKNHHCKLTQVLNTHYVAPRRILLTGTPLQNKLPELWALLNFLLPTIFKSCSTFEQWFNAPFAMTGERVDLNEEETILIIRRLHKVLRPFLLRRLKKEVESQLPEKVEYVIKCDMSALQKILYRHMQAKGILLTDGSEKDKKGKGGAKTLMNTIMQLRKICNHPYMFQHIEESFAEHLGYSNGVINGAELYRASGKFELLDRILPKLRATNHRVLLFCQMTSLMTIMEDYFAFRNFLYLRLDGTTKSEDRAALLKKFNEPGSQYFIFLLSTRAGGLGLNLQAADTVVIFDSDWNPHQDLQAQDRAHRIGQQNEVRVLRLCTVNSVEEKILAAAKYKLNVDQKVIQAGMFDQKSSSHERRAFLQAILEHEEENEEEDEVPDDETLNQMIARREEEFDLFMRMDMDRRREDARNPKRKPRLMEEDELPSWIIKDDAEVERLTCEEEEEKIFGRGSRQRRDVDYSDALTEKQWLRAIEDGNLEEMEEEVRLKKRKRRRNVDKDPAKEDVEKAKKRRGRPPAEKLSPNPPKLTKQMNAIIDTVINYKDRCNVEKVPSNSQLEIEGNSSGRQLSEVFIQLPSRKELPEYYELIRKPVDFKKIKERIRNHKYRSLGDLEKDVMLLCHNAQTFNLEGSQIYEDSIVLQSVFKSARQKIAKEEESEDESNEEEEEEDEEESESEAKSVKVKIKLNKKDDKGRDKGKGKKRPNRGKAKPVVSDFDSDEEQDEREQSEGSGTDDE
UniProt P51532: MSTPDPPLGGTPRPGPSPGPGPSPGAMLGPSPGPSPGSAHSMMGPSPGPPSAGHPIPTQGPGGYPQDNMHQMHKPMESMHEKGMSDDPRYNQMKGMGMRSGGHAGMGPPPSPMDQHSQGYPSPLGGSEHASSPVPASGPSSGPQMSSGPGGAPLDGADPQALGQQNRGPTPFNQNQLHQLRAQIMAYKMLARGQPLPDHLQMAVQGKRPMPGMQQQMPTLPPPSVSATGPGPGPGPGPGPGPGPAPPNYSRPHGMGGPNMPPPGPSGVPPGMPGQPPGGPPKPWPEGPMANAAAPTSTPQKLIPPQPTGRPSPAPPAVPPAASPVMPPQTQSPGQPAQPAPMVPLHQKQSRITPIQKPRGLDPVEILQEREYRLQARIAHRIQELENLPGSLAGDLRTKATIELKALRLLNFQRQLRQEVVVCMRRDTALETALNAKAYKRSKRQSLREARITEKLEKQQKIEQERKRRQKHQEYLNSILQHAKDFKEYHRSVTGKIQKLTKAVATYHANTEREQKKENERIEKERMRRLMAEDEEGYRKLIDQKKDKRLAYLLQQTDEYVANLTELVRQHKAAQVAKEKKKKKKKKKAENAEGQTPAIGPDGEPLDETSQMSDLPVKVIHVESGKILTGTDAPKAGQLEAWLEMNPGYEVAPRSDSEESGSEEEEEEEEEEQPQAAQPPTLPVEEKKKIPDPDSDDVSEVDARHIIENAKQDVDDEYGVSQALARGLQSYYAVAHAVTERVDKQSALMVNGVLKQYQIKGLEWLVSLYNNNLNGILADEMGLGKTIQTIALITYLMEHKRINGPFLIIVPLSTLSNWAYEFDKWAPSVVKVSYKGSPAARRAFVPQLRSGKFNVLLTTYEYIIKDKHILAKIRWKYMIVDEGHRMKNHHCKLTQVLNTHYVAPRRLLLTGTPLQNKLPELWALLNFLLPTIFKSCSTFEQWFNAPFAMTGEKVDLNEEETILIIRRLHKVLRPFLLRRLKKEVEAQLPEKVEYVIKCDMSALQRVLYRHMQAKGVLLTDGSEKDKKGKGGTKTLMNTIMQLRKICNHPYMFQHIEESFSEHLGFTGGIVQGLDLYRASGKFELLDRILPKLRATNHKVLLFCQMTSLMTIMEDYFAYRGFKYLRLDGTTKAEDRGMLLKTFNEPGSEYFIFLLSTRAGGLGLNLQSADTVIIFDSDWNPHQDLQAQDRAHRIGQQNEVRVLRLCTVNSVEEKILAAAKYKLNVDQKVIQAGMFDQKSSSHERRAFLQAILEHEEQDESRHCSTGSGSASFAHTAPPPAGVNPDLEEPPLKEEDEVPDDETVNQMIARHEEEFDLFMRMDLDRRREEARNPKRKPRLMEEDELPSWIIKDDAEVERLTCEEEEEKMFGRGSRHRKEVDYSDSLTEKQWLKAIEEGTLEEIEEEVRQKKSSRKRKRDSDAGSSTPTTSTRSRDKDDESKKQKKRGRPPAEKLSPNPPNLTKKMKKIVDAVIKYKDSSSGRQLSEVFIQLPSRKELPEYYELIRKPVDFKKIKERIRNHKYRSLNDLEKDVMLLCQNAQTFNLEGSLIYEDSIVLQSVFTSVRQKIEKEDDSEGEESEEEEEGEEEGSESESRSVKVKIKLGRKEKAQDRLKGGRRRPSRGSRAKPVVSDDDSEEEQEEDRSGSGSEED
UniProt O96019: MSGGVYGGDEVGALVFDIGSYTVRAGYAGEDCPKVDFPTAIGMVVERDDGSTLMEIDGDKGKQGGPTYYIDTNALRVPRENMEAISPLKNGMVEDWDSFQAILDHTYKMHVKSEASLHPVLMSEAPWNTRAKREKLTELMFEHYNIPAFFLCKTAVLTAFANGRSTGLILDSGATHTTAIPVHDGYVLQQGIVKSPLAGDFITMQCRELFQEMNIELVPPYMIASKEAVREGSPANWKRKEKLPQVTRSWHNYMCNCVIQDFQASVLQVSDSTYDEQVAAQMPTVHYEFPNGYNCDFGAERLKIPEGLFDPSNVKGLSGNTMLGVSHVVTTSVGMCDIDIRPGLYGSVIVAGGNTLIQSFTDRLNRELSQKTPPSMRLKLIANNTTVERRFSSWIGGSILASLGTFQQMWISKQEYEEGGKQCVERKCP
UniProt P28370: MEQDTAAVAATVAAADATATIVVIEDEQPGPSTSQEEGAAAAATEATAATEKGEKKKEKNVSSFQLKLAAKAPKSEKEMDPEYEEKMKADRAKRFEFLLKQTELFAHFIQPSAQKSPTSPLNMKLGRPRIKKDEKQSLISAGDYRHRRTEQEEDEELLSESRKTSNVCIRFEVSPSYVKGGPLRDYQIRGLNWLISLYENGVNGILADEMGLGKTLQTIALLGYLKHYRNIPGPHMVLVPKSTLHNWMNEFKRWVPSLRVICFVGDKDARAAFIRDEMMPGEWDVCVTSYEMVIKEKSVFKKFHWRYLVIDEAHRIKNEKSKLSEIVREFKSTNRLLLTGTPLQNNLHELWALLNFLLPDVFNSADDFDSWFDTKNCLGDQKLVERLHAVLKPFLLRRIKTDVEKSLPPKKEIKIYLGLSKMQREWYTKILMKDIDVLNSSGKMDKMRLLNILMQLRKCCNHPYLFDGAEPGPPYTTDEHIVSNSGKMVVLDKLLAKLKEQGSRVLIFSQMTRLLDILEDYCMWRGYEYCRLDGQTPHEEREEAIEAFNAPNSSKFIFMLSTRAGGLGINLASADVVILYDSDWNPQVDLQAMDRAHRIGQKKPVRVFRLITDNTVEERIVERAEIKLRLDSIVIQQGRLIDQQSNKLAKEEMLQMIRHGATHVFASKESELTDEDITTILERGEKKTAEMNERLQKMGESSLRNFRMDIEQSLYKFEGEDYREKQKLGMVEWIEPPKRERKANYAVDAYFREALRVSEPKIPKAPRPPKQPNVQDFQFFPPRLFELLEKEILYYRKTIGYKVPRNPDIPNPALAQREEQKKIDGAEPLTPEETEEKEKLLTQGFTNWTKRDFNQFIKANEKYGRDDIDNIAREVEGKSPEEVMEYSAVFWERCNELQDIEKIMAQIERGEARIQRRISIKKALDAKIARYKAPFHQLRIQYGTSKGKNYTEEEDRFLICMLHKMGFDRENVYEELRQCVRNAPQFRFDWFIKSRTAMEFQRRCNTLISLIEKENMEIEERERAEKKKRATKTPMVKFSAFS
UniProt Q02880: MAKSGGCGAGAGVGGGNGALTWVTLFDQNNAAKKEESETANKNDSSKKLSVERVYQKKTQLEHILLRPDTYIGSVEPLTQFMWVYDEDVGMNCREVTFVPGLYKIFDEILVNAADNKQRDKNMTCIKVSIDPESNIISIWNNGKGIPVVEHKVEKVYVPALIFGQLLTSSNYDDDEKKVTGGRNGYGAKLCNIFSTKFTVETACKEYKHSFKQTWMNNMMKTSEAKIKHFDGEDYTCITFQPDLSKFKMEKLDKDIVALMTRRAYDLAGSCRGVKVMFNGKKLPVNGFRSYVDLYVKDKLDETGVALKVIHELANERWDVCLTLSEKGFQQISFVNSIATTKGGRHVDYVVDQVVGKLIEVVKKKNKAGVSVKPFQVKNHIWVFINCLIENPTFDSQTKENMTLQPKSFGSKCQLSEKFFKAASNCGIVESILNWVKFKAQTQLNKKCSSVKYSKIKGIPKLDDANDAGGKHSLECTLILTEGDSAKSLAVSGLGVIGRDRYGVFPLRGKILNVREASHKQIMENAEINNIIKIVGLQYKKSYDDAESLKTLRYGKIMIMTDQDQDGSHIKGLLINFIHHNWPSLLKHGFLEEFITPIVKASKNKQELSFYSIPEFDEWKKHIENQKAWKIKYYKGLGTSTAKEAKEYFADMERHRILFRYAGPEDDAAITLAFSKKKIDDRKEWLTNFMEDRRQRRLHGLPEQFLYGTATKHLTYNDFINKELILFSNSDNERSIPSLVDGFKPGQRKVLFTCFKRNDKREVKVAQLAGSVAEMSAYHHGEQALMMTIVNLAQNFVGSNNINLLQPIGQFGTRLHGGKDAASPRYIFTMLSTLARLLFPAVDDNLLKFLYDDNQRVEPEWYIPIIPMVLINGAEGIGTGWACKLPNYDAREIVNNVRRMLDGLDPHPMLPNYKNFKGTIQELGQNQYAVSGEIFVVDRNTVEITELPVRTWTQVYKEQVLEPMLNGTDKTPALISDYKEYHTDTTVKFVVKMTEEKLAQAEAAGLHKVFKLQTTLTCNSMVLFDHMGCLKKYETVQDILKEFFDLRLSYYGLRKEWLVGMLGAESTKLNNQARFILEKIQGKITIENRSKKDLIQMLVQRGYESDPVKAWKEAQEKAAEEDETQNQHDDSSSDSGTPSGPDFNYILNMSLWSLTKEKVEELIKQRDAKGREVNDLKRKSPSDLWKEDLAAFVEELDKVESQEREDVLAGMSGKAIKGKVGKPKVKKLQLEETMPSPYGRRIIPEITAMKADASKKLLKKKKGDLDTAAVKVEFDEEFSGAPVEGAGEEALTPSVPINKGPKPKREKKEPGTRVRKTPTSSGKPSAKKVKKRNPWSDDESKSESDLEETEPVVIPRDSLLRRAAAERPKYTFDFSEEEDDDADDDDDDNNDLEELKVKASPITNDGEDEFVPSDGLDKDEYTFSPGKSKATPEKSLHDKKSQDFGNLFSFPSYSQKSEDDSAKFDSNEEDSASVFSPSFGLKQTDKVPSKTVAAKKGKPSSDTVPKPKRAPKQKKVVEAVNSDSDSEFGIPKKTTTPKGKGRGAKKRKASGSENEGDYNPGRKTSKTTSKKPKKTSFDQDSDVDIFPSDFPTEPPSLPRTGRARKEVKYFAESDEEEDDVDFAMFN

How the values were obtained:
[1] = target: BRM (SMARCA2) (human (endogenous in hESCs)) (UniProt P51531); experiment: co-IP; high-salt (more stringent) condition: proteins extracted with buffer C (420 mM NaCl), antibody overnight, beads washed four times with buffer C; naïve hESCs, endogenous proteins
[2] = target: BRM (SMARCA2) (human (endogenous in hESCs)) (UniProt P51531); experiment: co-IP; regular condition: same protocol as the OCT4 antibody IP-MS; nuclear extract of WIBR2 and WIBR3 hESCs in primed and naïve (4i/L/A or 5i/L/A) conditions; IP with OCT4, BRG1 or BRM antibody against IgG control, western blot of endogenous proteins
[3] = target: BRG1 (SMARCA4) (human (endogenous in hESCs)) (UniProt P51532); experiment: as above

| Substance | binding [1] | binding [2] | binding [3] |
| --- | --- | --- | --- |
| BAF53A (from UniProt O96019 1-429) | binds |  |  |
| OCT4 (from UniProt Q01860 1-360) |  | binds | binds |
| SNF2L (SMARCA1) (from UniProt P28370 1-1042) |  |  | binds |
| TOP2B (from UniProt Q02880 1-1626) |  |  | binds |
